The list shows a part of the results.

Amino acid sequences for entries named in this document (tags omitted). A change or cut given only in a name is not applied to a line headed by its entry.
UniProt Q5RL73: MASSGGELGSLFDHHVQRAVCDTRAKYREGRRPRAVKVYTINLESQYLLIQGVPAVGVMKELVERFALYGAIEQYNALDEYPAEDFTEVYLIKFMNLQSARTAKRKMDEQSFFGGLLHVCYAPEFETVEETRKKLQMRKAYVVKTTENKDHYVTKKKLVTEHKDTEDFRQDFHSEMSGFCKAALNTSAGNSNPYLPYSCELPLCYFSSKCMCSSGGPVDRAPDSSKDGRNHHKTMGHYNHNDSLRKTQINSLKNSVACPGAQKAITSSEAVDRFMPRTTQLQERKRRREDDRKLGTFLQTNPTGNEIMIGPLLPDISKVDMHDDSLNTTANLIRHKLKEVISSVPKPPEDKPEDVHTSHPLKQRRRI
UniProt Q8TC12: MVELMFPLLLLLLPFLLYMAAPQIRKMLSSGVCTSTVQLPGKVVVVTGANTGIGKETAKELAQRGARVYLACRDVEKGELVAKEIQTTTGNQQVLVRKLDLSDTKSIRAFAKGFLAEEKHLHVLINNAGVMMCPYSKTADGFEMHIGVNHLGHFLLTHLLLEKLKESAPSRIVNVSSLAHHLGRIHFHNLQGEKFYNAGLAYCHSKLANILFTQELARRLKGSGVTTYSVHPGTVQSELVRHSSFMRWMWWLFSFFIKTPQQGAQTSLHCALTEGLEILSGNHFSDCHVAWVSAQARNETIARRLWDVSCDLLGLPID
UniProt Q02161: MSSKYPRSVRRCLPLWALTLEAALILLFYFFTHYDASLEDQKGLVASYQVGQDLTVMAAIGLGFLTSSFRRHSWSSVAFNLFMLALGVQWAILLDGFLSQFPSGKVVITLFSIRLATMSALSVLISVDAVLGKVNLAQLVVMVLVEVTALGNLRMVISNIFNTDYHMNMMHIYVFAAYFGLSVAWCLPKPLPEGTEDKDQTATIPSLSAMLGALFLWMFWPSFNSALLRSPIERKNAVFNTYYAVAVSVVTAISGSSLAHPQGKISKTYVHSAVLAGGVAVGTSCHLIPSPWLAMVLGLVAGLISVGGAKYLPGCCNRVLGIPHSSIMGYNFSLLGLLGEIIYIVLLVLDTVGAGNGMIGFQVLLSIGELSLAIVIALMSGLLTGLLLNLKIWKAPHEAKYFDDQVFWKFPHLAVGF
UniProt Q8NC44: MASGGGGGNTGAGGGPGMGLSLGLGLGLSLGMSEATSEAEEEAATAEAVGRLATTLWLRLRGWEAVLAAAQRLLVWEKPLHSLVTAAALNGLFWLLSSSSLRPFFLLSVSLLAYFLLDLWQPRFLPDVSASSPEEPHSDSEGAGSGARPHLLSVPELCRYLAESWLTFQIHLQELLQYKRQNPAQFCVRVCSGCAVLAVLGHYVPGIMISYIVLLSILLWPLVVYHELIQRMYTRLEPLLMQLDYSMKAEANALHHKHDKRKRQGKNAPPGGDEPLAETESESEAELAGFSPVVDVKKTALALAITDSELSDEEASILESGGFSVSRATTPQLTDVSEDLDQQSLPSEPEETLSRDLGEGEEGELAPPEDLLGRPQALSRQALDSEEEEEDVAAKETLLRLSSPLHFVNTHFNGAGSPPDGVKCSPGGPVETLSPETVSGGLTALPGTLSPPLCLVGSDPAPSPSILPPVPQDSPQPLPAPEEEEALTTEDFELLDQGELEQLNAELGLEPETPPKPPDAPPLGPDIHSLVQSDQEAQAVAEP
UniProt Q9H0Z9: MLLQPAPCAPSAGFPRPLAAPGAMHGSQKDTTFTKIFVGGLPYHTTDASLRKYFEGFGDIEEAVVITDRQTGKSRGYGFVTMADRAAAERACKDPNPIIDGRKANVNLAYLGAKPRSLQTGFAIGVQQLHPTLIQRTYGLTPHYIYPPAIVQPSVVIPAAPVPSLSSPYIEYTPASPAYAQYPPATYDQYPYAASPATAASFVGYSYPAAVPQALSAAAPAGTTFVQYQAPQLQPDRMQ
UniProt P49796: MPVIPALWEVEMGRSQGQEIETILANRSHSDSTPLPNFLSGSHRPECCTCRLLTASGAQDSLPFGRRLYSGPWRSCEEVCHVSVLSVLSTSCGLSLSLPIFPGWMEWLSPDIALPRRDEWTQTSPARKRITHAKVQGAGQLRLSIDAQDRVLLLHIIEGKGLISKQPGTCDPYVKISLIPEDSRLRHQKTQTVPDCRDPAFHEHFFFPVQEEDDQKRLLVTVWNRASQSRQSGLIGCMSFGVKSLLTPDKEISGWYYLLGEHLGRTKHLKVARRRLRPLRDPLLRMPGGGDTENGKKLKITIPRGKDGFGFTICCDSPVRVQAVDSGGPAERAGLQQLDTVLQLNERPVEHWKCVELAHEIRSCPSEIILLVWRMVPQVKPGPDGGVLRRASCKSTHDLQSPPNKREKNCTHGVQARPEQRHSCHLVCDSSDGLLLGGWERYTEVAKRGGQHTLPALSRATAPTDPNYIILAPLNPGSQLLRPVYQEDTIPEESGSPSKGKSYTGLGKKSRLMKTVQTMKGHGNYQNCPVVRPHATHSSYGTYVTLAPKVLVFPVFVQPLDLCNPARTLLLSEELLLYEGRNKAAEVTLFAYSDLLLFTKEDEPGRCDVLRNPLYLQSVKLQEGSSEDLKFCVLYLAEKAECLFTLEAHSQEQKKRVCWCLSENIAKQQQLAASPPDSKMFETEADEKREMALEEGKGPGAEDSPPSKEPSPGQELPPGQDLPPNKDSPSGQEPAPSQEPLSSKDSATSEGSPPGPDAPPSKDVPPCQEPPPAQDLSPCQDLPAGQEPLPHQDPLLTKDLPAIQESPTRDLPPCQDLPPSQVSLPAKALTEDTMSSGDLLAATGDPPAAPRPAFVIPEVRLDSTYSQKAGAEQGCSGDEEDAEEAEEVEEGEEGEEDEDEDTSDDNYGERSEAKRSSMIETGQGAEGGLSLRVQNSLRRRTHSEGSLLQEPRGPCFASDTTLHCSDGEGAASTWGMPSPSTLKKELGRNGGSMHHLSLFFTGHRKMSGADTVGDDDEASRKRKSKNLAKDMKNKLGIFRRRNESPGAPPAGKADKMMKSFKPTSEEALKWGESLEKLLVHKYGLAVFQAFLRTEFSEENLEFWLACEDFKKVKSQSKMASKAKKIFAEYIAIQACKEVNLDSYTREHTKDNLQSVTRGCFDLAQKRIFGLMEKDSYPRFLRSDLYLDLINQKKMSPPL
UniProt Q9H477: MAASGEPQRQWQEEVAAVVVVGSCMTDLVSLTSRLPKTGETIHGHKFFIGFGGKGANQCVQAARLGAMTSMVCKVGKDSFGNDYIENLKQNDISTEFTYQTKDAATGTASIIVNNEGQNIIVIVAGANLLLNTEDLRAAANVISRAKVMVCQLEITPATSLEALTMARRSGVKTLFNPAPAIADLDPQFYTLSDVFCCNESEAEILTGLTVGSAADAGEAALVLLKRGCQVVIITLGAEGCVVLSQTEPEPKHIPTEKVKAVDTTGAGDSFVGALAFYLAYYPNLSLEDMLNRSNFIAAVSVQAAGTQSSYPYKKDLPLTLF

What all share (experiment): log2 fold change, soluble protein after heating vs DMSO (PISA); higher = thermal stabilisation; K562 lysate, 10 uM; active = over 0.2 and 3.5 SD of the protein, either way, in both replicates (recomputed)
Compound in assay [1]: CC1=C2C(=CC=C1)N=C(N(C2=O)C3=CC=CC=C3C)CN4C=NC5=C(N=CN=C54)N
Summed up:
(§1)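 The values are log-two fold changes in thermal stability compared with solvent controls and come from duplicates. They were obtained by TMTpro 16plex LC-MS/MS, with channel sums equalised, on the supernatant after 21,000xg for 90 min. That supernatant came from crude K562 extract at 1 mg/mL protein treated with 10 μM compound for 30 min, heated for 3 min across 48°C-58°C, pooled and brought to 0.5% NP-40 at 4°C.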

Compound in assay [2]: Cc1sc2c(c1C)C(c1ccc(Cl)cc1)=N[C@@H](CC(=O)OC(C)(C)C)c1nnc(C)n1-2
Summed up:
as §1

Compound in assay [3]: c1ccc([C@@H]2C[C@H]2NC2CCNCC2)cc1
The procedure, abridged: as §1

Compound in assay [4]: C1=CC=C(C=C1)[C@H](COC2=CC3=C(C=C2)NC(=O)N3)NC(=O)C4=CC=CN(C4=O)CC5=CC(=C(C=C5)F)F
Summed up:
as §1

Compound in assay [5]: CC1=C(SC2=C1C(=N[C@H](C3=NN=C(N32)C)CC(=O)N)C4=CC=C(C=C4)Cl)C
The procedure, abridged:
as §1

As for RBM48 isoform 2 (UniProt Q5RL73), the figures for the log2 fold change in assay [1], in assay [2] and in assay [3] were inactive: -0.107, inactive: 0.027 and inactive: -0.119, respectively.

On to RDH11 (UniProt Q8TC12), for which the log2 fold change in assay [1] is inactive: 0.064; in assay [2] it was inactive: 0.069; in assay [3], inactive: -0.085.

In the case of RHD (UniProt Q02161), the log2 fold change in assay [2] is inactive: -0.035; in assay [3], inactive: -0.067.

As for RETREG2 (UniProt Q8NC44), the log2 fold change in assay [4] was inactive: -0.095; in assay [5], inactive: 0.016; in assay [1], inactive: 0.084; in assay [3] it was inactive: 0.004.

For the target RBM38 (UniProt Q9H0Z9), the log2 fold change in assay [1] is inactive: 0.07; in assay [2], inactive: 0.007; in assay [3], inactive: -0.066.

As to RGS3 (UniProt P49796), the log2 fold change in assay [4] is inactive: 0.001; in assay [5] it was inactive: -0.022; in assay [3], inactive: 0.069.

With RBKS (UniProt Q9H477), the log2 fold change is inactive: -0.367 in assay [2] and inactive: -0.06 in assay [3].

These data come from the supplement of paper PMC10849652.
